Measurements: patent US8383375B2 (Posco, priority 2004, dated 2013)
Some results were stated once for a whole list of compounds, not compound by compound.

Target: T1, Ss gluconate dehydratase (Saccharolobus solfataricus, UniProt Q97U27)
T1 sequence (Q97U27 1-395): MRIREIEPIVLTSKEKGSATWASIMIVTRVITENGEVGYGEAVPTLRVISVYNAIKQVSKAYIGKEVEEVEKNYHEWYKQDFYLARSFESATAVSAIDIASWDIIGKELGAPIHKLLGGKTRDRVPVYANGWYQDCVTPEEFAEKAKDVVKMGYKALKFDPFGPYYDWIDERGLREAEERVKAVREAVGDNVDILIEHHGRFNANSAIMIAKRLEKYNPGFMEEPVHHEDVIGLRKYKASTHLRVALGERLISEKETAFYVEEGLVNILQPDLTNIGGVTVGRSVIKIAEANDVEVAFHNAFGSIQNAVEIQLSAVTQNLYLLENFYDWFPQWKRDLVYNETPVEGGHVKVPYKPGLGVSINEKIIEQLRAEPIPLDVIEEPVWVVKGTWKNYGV
Assay: Substrate specificities of Ss gluconate dehydratase (semicarbazide method)
Assay type: biochemical, Sulfolobus solfataricus
Set-up: made in house; host or cells: Sulfolobus solfataricus cells (native source, not recombinant)
Settings: relative to D-gluconate, 10 mM aldonic acid, 1 mM CoCl2, 50 mM Tri-HCl buffer pH 7.0, 30 min, 78 C, listed as L-isovalerate

L-isovalerate [D, L-isovalerate]
Relative activity (%): less than 1%
